{"source": "the supplement of paper PMC8728848", "binders": {"B1": {"name": "PEB1 (Campylobacter jejuni), Q0P9X8 (protein)", "chain": "MVFRKSLLKLAVFALGACVAFSNANAAEGKLESIKSKGQLIVGVKNDVPHYALLDQATGEIKGFEVDVAKLLAKSILGDDKKIKLVAVNAKTRGPLLDNGSVDAVIATFTITPERKRIYNFSEPYYQDAIGLLVLKEKKYKSLADMKGANIGVAQAATTKKAIGEAAKKIGIDVKFSEFPDYPSIKAALDAKRVDAFSVDKSILLGYVDDKSEILPDSFEPQSYGIVTKKDDPAFAKYVDDFVKEHKNEIDALAKKWGL"}}, "assay_in_all_cases": "glycan array binding signal (z-score within array); higher = stronger binding", "settings_in_all_cases": "glycan notation: IUPAC condensed, linker removed", "key": {"[1]": {"target": "Kdn(a2-3)Gal(b1-4)[Fuc(a1-3)]GlcNAc", "procedure,_shortened": "(§1)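 Glycan array data were curated from 3228 arrays in the Consortium for Functional Glycomics database and kept only where the protein sequence was available. Glycan names were converted to IUPAC-condensed notation, and columns mapping to the same glycan were averaged. The binding signal is a within-array Z-score, averaged across arrays of the same protein sequence at different concentrations or buffers and across linkers. Negative Z-scores can be read as non-binding.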"}, "[2]": {"target": "Kdn(a2-6)Gal(b1-4)GlcNAc", "procedure,_shortened": "as §1"}, "[3]": {"target": "Man(a1-2)Man(a1-2)Man(a1-3)Man", "procedure,_shortened": "as §1"}, "[4]": {"target": "Man(a1-2)Man(a1-2)Man(a1-6)[Man(a1-3)]Man", "procedure,_shortened": "as §1"}, "[5]": {"target": "Man(a1-2)Man(a1-3)Man", "procedure,_shortened": "as §1"}, "[6]": {"target": "Man(a1-2)Man(a1-3)[Man(a1-2)Man(a1-6)]Man", "procedure,_shortened": "as §1"}, "[7]": {"target": "Man(a1-2)Man(a1-3)[Man(a1-2)Man(a1-6)]Man(a1-6)[Man(a1-2)Man(a1-2)Man(a1-3)]Man", "procedure,_shortened": "as §1"}, "[8]": {"target": "Man(a1-2)Man(a1-3)[Man(a1-2)Man(a1-6)]Man(a1-6)[Man(a1-2)Man(a1-2)Man(a1-3)]Man(b1-4)GlcNAc(b1-4)GlcNAc", "procedure,_shortened": "as §1"}, "[9]": {"target": "Man(a1-2)Man(a1-3)[Man(a1-6)]Man(a1-6)[Man(a1-2)Man(a1-3)]Man(b1-4)GlcNAc(b1-4)GlcNAc", "procedure,_shortened": "as §1"}, "[10]": {"target": "Man(a1-2)Man(a1-6)[Man(a1-3)]Man(a1-6)[Man(a1-2)Man(a1-2)Man(a1-3)]Man", "procedure,_shortened": "as §1"}, "[11]": {"target": "Man(a1-2)Man(a1-6)[Man(a1-3)]Man(a1-6)[Man(a1-2)Man(a1-2)Man(a1-3)]Man(b1-4)GlcNAc(b1-4)GlcNAc", "procedure,_shortened": "as §1"}, "[12]": {"target": "Man(a1-3)[Man(a1-6)]Man", "procedure,_shortened": "as §1"}, "[13]": {"target": "Man(a1-3)[Man(a1-6)]Man(a1-6)[Man(a1-2)Man(a1-3)]Man(b1-4)GlcNAc(b1-4)GlcNAc", "procedure,_shortened": "as §1"}, "[14]": {"target": "Man(a1-3)[Man(a1-6)]Man(a1-6)[Man(a1-3)]Man", "procedure,_shortened": "as §1"}, "[15]": {"target": "Man(a1-3)[Man(a1-6)]Man(a1-6)[Man(a1-3)]Man(b1-4)GlcNAc(b1-4)GlcNAc", "procedure,_shortened": "as §1"}, "[16]": {"target": "Man(a1-3)[Man(a1-6)]Man(b1-4)GlcNAc(b1-4)GlcNAc", "procedure,_shortened": "as §1"}, "[17]": {"target": "Man(a1-6)Man", "procedure,_shortened": "as §1"}, "[18]": {"target": "Man(b1-4)GlcNAc", "procedure,_shortened": "as §1"}, "[19]": {"target": "Neu5Ac(a2-3)Gal", "procedure,_shortened": "as §1"}, "[20]": {"target": "Neu5Ac(a2-3)Gal(b1-3)GalNAc", "procedure,_shortened": "as §1"}, "[21]": {"target": "Neu5Ac(a2-3)Gal(b1-3)GalNAc(b1-3)Gal(a1-4)Gal(b1-4)Glc", "procedure,_shortened": "as §1"}, "[22]": {"target": "Neu5Ac(a2-3)Gal(b1-3)GalNAc(b1-4)[Neu5Ac(a2-3)]Gal(b1-4)Glc", "procedure,_shortened": "as §1"}, "[23]": {"target": "Neu5Ac(a2-3)Gal(b1-3)GalNAc6S", "procedure,_shortened": "as §1"}, "[24]": {"target": "Neu5Ac(a2-3)Gal(b1-3)GlcNAc", "procedure,_shortened": "as §1"}, "[25]": {"target": "Neu5Ac(a2-3)Gal(b1-3)GlcNAc(b1-2)Man(a1-3)[Neu5Ac(a2-3)Gal(b1-3)GlcNAc(b1-2)Man(a1-6)]Man(b1-4)GlcNAc(b1-4)GlcNAc", "procedure,_shortened": "as §1"}, "[26]": {"target": "Neu5Ac(a2-3)Gal(b1-3)GlcNAc(b1-3)Gal(b1-3)GlcNAc", "procedure,_shortened": "as §1"}, "[27]": {"target": "Neu5Ac(a2-3)Gal(b1-3)GlcNAc(b1-3)Gal(b1-4)GlcNAc", "procedure,_shortened": "as §1"}, "[28]": {"target": "Neu5Ac(a2-3)Gal(b1-3)GlcNAc(b1-3)GalNAc", "procedure,_shortened": "as §1"}, "[29]": {"target": "Neu5Ac(a2-3)Gal(b1-3)GlcNAc6S", "procedure,_shortened": "as §1"}, "[30]": {"target": "Neu5Ac(a2-3)Gal(b1-3)[Fuc(a1-4)]GlcNAc", "procedure,_shortened": "as §1"}, "[31]": {"target": "Neu5Ac(a2-3)Gal(b1-3)[Fuc(a1-4)]GlcNAc(b1-3)Gal(b1-3)[Fuc(a1-4)]GlcNAc", "procedure,_shortened": "as §1"}, "[32]": {"target": "Neu5Ac(a2-3)Gal(b1-3)[Fuc(a1-4)]GlcNAc(b1-3)Gal(b1-4)[Fuc(a1-3)]GlcNAc", "procedure,_shortened": "as §1"}, "[33]": {"target": "Neu5Ac(a2-3)Gal(b1-3)[Neu5Ac(a2-3)Gal(b1-4)]GlcNAc", "procedure,_shortened": "as §1"}, "[34]": {"target": "Neu5Ac(a2-3)Gal(b1-3)[Neu5Ac(a2-6)]GalNAc", "procedure,_shortened": "as §1"}, "[35]": {"target": "Neu5Ac(a2-3)Gal(b1-4)Glc", "procedure,_shortened": "as §1"}}, "note": "The list shows a part of the results.", "data": [{"binder": "B1", "values": [{"measurement": "glycan array binding signal (z-score)", "setting": "[1]", "result": -0.113}, {"measurement": "glycan array binding signal (z-score)", "setting": "[2]", "result": 0.341}, {"measurement": "glycan array binding signal (z-score)", "setting": "[3]", "result": 0.86}, {"measurement": "glycan array binding signal (z-score)", "setting": "[4]", "result": 0.453}, {"measurement": "glycan array binding signal (z-score)", "setting": "[5]", "result": -0.555}, {"measurement": "glycan array binding signal (z-score)", "setting": "[6]", "result": 0.79}, {"measurement": "glycan array binding signal (z-score)", "setting": "[7]", "result": 0.343}, {"measurement": "glycan array binding signal (z-score)", "setting": "[8]", "result": -0.187}, {"measurement": "glycan array binding signal (z-score)", "setting": "[9]", "result": 0.233}, {"measurement": "glycan array binding signal (z-score)", "setting": "[10]", "result": -0.547}, {"measurement": "glycan array binding signal (z-score)", "setting": "[11]", "result": -0.931}, {"measurement": "glycan array binding signal (z-score)", "setting": "[12]", "result": -0.323}, {"measurement": "glycan array binding signal (z-score)", "setting": "[13]", "result": 0.547}, {"measurement": "glycan array binding signal (z-score)", "setting": "[14]", "result": -1.84}, {"measurement": "glycan array binding signal (z-score)", "setting": "[15]", "result": -0.897}, {"measurement": "glycan array binding signal (z-score)", "setting": "[16]", "result": -0.447}, {"measurement": "glycan array binding signal (z-score)", "setting": "[17]", "result": -0.896}, {"measurement": "glycan array binding signal (z-score)", "setting": "[18]", "result": -0.146}, {"measurement": "glycan array binding signal (z-score)", "setting": "[19]", "result": -1.12}, {"measurement": "glycan array binding signal (z-score)", "setting": "[20]", "result": -0.429}, {"measurement": "glycan array binding signal (z-score)", "setting": "[21]", "result": -0.602}, {"measurement": "glycan array binding signal (z-score)", "setting": "[22]", "result": 0.062}, {"measurement": "glycan array binding signal (z-score)", "setting": "[23]", "result": -0.567}, {"measurement": "glycan array binding signal (z-score)", "setting": "[24]", "result": 0.077}, {"measurement": "glycan array binding signal (z-score)", "setting": "[25]", "result": -0.331}, {"measurement": "glycan array binding signal (z-score)", "setting": "[26]", "result": 0.396}, {"measurement": "glycan array binding signal (z-score)", "setting": "[27]", "result": -0.813}, {"measurement": "glycan array binding signal (z-score)", "setting": "[28]", "result": -0.289}, {"measurement": "glycan array binding signal (z-score)", "setting": "[29]", "result": -1.25}, {"measurement": "glycan array binding signal (z-score)", "setting": "[30]", "result": -1.17}, {"measurement": "glycan array binding signal (z-score)", "setting": "[31]", "result": 0.714}, {"measurement": "glycan array binding signal (z-score)", "setting": "[32]", "result": 0.311}, {"measurement": "glycan array binding signal (z-score)", "setting": "[33]", "result": -0.138}, {"measurement": "glycan array binding signal (z-score)", "setting": "[34]", "result": 0.792}, {"measurement": "glycan array binding signal (z-score)", "setting": "[35]", "result": -0.754}]}]}
